# Source: PubChem BioAssay AID504834 (National Center for Advancing Translational Sciences (NCATS), 2011)
# Among all 320,000 compounds or so, about 22,000 (6.9%) were called active. The inconclusive results got no clear call from the source; some entries with a clear call stand among them for comparison. Calls follow the shape of the dose curve; as a rule, active = well fitted inhibition curve with a large enough effect; inconclusive = small, poorly fitted or top-dose-only effect, or another doubt; inactive = no such curve, though single readings can be large or run the other way. Where the call is inconclusive, the potency comes from a doubtful curve fit.
# Test: Primary qHTS for delayed death inhibitors of the malarial parasite plastid, 96 hour incubation
# Details: P. falciparum luciferase reporter growth; series mostly up to 28.7 µM
# In short: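 Cell-based qHTS: luciferase-tagged P. falciparum in erythrocytes (2% hematocrit, 0.05% parasitemia final) incubated with compounds for 96 hours, 37 C, 5% CO2; luciferase detection reagent then added and luminescence measured.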
# Potency is read from the fitted curve at half-maximal effect.
row,Compound,Potency
1,O=C(NCc1cccnc1)C(=O)NCC1OCCCN1S(=O)(=O)c1ccc(F)cc1 (centres undefined),inactive
2,O=C(O)c1ccc(N=Cc2nc(-c3ccco3)oc2O)cc1,"inconclusive: 5.22 µM [inhibitor, partial curve]"
3,O=C(NCc1ccco1)c1ccc2c(=O)n(CCC3=CCCCC3)c(=O)[nH]c2c1,"inconclusive: 18.5 µM [inhibitor, single point]"
4,CC(C)CC1(C)NC(=O)N(CC(=O)NC(=O)Nc2ccc3c(c2)OCCO3)C1=O (centres undefined),"inconclusive: 18.5 µM [inhibitor, single point]"
5,OCCSc1nc2ccccc2n1CCOc1ccccc1,"inconclusive: 8.28 µM [inhibitor, single point]"
6,CC(=O)Nc1ccc(S(=O)(=O)Oc2cccc(/C=N/N=C3/NC(=O)C(CC(=O)O)S3)c2)cc1 (centres undefined),inactive
7,COc1ccc(C2/C=C\CN(S(=O)(=O)c3cccc4cccnc34)CC(=O)N2Cc2ccc(F)cc2)cc1 (centres undefined),active: 11.7 µM
8,NC(=O)CN1CC(c2ccccc2)CC1=O (centres undefined),inactive
9,Cc1cc(OCC(=O)Nc2ncn[nH]2)ccc1Cl,active: 1.85 µM
10,Cc1cc2c(c(=O)n1-c1ccccc1)C1O[C@](c3ccsc3)(Cc3ccccc31)O2,active: 1.69 µM
11,O=C(c1cc(S(=O)(=O)N2CCCCC2)ccc1N1CCOCC1)N1CCN(Cc2ccccc2)CC1,inactive
12,CCOC(=O)CN1N=C(/C=C/c2ccc(OC)cc2)CCC1=O,inactive
13,COc1cc(/C=N/Nc2ccc(C(F)(F)F)cn2)cc(OC)c1O,"inconclusive: 11.7 µM [inhibitor, single point]"
14,COC(=O)c1c(C(=O)OC)c2n(c1C)CCC2,"inconclusive: 0.0029 µM [inhibitor, full curve, poor fit]"
15,CN1C(=O)C(O)(CC(=O)c2cccs2)c2ccccc21 (centres undefined),inactive
16,CC(=O)NC1C(=O)N=C(SCC(=O)NC2CCCCC2)NC1=O (centres undefined),"inconclusive: 0.0041 µM [inhibitor, full curve, poor fit]"
17,COc1ccc(C(=O)C2CCCN(Cc3sc(N4CCCC4)nc3Cl)C2)c(OC)c1 (centres undefined),"inconclusive: 10.4 µM [inhibitor, partial curve]"
18,CCOc1ccc(C(C(=O)NCC2CCCO2)N(Cc2cccc(OC)c2)C(=O)c2snc(C(N)=O)c2N)cc1 (centres undefined),"inconclusive: 5.22 µM [inhibitor, partial curve]"
19,Cc1ccc(C)c(NC(=O)CN(C)C(=O)c2cccc(S(=O)(=O)N3CCN(Cc4ccccc4)CC3)c2)c1,"inconclusive: 13.1 µM [inhibitor, single point]"
20,COc1cc(OC)c(/C=N/NC(=O)c2ccc(Cn3nc([N+](=O)[O-])cc3C)cc2)c(OC)c1,inactive

row,Compound,Potency
1,C#CCOCCOCCOCCNc1nc(N2CCN(C(=O)CCCCCCCCCCNC(=O)[C@@H](CCSC)n3cc(CCO)nn3)CC2)nc(N2CCN(C(=O)CCCCCCCCCCNC(=O)[C@H](CO)n3cc(CCCCCN)nn3)CC2)n1,"inconclusive: 0.37 µM [inhibitor, full curve]"
2,CC(=O)Nc1ccc(NC(=O)C(C)c2cccc(C(=O)c3ccccc3)c2)cc1 (centres undefined),"inconclusive: 11.7 µM [inhibitor, single point]"
3,Cc1ccccc1NC(=O)COc1coc(CN2CCCc3ccccc32)cc1=O,"inconclusive: 10.4 µM [inhibitor, single point]"
4,Cc1ccc(-c2cc(C(=O)Nc3cccc(S(=O)(=O)N(C)C)c3)c3ccccc3n2)o1,"inconclusive: 16.5 µM [inhibitor, partial curve, poor fit]"
5,CCCN(CCC)CCCNC(=O)c1cn(CC)c2ccc(S(=O)(=O)N3CCOCC3)cc2c1=O,"inconclusive: 18.5 µM [inhibitor, single point]"
6,COc1cc(Br)cc(C2C3=C(CCCC3=O)N(c3ccc(F)cc3)C3=C2C(=O)CCC3)c1O,"inconclusive: 3.29 µM [inhibitor, partial curve, poor fit]"
7,O=[N+]([O-])c1cccc(/C=C/c2nc[nH]c2[N+](=O)[O-])c1,active: 1.47 µM
8,C=CCOC(=O)C1=C[C@@H](c2coc3ccccc3c2=O)C[C@@H](OCc2ccc(CO)cc2)O1,"inconclusive: 10.4 µM [inhibitor, single point]"
9,O=c1[nH]c(CSc2ncccn2)nc2c1cnn2-c1ccccc1,inactive
10,O=C1CN(C(=O)c2ccccc2)C(c2ccccc2)c2cc(F)ccc2N1 (centres undefined),"inconclusive: 10.4 µM [inhibitor, partial curve]"
11,CC(C)c1ccc(S(=O)(=O)N2CCN(C(C)C(=O)Nc3ccccc3-c3ccccc3)CC2)cc1 (centres undefined),active: 5.22 µM
12,Cc1ccc([N+](=O)[O-])cc1S(=O)(=O)Nc1ccc(-c2ccc(N3CCCC3)nn2)cc1,"inconclusive: 13.1 µM [inhibitor, single point]"
13,Cc1nn(CC(=O)N2CCN(c3ccc(Cl)cc3)CC2)c(=O)c2cccn12,"inconclusive: 1.04 µM [inhibitor, full curve]"
14,Cc1onc(-c2ccccc2Cl)c1C(=O)Nc1nnc(-c2cccc([N+](=O)[O-])c2)s1,"inconclusive: 4.15 µM [inhibitor, full curve]"
15,CC(C)(O)C#Cc1ccc(C(=O)N2CCN(c3ccc(Cl)cc3)CC2)cc1,active: 6.57 µM
16,CCS(=O)(=O)Nc1cccc(C2=NN(S(=O)(=O)c3ccccc3)C(c3cccs3)C2)c1 (centres undefined),"inconclusive: 18.5 µM [inhibitor, single point]"
17,C#CCOCCOCCOCCNc1nc(N2CCN(C(=O)CCCCCCCCCCNC(=O)[C@@H](CCC(=O)O)n3cc(CCCCCN)nn3)CC2)nc(N2CCN(C(=O)CCCCCCCCCCNC(=O)[C@H](CCCCN)n3cc(C[C@@H](C)CC)nn3)CC2)n1,"inconclusive: 5.22 µM [inhibitor, partial curve, poor fit]"
18,CCSc1nnc(-c2cc(Br)ccc2N=Cc2c(C)[nH]n(-c3ccccc3)c2=O)c(=O)[nH]1,"inconclusive: 2.08 µM [inhibitor, single point]"
19,CC(=O)c1sc(NS(=O)(=O)c2ccc(C)cc2)nc1C,inactive

# Individual results from the list.
# For Potency, Cc1ccc(C)c(NC(=O)CN(C)C(=O)c2cccc(S(=O)(=O)N3CCN(Cc4ccccc4)CC3)c2)c1 reads inconclusive: 13.1 µM [inhibitor, single point]
# For Potency, COc1cc(Br)cc(C2C3=C(CCCC3=O)N(c3ccc(F)cc3)C3=C2C(=O)CCC3)c1O reads inconclusive: 3.29 µM [inhibitor, partial curve, poor fit]
